The supplement of paper PMC10849652
Some of the results follow.

Amino acid sequences for entries named in this document (tags omitted). A change or cut given only in a name is not applied to a line headed by its entry.
UniProt O60641: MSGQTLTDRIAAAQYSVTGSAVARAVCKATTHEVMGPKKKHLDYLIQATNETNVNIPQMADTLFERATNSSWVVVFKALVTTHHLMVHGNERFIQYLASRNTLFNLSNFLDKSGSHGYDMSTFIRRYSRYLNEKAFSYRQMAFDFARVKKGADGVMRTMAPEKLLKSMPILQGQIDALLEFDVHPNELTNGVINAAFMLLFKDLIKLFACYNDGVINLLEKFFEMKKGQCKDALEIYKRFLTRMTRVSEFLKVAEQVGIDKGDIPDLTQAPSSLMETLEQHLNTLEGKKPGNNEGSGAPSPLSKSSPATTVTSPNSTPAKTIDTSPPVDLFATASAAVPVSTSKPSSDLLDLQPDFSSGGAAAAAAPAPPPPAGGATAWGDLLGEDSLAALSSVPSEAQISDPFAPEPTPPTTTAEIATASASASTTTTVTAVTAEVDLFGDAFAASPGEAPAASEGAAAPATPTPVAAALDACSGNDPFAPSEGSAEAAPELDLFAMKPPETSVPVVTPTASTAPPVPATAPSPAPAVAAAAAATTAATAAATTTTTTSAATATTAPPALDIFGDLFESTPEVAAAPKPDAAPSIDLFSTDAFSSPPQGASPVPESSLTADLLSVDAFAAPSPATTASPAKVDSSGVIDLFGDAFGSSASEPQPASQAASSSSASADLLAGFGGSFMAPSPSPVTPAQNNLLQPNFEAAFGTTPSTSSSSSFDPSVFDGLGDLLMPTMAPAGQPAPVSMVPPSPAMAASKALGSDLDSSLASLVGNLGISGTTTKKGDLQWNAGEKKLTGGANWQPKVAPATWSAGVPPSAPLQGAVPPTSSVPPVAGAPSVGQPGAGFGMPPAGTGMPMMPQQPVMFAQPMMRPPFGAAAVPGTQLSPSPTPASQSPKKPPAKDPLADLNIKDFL
UniProt Q9H0W8: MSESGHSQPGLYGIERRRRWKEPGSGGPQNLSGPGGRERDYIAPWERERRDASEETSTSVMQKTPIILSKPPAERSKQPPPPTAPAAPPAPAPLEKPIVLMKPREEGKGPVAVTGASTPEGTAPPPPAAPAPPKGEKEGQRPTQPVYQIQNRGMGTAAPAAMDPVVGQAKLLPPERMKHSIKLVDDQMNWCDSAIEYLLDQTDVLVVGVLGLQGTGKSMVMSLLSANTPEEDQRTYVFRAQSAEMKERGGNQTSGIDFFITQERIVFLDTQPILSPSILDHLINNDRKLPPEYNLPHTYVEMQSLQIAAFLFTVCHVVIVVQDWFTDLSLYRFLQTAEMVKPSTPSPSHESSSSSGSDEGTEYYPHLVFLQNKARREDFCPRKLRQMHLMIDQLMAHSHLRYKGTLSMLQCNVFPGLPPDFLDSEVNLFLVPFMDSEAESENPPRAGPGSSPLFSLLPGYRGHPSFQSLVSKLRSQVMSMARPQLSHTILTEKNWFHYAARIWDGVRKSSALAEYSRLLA
UniProt Q16637, whole entry, looked up: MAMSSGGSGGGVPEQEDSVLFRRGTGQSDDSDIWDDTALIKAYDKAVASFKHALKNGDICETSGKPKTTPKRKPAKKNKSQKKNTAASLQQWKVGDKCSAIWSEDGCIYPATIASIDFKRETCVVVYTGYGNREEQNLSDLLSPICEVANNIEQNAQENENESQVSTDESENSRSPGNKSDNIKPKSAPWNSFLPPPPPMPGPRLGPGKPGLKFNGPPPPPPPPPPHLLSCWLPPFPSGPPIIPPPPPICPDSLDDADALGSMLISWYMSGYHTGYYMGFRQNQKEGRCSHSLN
UniProt P08047, whole entry, looked up: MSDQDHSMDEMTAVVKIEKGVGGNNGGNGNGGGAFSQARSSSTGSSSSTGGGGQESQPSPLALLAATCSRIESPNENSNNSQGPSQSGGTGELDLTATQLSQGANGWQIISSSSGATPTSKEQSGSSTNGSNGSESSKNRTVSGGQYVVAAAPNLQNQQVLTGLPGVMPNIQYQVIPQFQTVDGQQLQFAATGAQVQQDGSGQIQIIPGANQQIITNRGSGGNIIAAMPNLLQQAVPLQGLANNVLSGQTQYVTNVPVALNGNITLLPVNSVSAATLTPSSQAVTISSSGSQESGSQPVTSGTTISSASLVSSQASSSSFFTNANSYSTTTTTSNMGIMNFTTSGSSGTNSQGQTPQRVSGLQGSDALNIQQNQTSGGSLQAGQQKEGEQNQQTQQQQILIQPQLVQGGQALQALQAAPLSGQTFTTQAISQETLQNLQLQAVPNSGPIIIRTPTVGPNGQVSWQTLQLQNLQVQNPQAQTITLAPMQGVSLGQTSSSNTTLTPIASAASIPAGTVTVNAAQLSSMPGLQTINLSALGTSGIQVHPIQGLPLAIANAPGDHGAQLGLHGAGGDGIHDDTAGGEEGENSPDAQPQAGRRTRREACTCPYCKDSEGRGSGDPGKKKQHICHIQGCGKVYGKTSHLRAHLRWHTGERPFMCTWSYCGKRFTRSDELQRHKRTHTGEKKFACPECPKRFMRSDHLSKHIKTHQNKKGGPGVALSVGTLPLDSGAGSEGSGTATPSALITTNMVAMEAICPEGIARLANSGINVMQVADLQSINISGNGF
UniProt Q9Y5W9: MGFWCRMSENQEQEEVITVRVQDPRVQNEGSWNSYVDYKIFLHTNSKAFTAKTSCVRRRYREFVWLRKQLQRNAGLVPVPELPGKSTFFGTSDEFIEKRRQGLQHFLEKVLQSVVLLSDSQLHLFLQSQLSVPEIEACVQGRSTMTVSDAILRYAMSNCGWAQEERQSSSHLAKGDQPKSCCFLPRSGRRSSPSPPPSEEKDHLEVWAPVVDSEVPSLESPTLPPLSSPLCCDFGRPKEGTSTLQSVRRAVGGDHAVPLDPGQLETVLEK
UniProt Q13596, whole entry, looked up: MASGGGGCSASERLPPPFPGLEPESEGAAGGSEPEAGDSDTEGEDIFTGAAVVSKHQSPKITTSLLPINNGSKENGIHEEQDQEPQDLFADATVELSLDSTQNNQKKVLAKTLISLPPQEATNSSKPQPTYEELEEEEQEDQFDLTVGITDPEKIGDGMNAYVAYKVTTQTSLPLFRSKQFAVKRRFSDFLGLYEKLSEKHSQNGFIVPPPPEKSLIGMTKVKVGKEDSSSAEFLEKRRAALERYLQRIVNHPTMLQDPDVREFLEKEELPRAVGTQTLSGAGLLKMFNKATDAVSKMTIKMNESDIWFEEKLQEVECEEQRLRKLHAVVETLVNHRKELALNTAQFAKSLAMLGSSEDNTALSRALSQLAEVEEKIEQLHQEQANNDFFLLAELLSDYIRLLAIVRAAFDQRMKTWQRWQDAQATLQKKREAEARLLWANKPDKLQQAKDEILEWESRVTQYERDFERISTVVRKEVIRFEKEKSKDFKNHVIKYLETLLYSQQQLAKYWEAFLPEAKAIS
UniProt Q9NRS6: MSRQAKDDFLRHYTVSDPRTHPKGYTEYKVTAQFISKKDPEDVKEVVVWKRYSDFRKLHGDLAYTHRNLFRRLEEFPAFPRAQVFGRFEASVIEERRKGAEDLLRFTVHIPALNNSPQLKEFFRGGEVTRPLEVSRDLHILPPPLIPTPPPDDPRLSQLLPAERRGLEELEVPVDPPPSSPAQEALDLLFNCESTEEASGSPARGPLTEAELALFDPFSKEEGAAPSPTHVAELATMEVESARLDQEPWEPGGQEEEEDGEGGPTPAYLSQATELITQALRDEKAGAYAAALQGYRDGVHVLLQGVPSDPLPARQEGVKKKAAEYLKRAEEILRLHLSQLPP
UniProt Q99523, whole entry, looked up: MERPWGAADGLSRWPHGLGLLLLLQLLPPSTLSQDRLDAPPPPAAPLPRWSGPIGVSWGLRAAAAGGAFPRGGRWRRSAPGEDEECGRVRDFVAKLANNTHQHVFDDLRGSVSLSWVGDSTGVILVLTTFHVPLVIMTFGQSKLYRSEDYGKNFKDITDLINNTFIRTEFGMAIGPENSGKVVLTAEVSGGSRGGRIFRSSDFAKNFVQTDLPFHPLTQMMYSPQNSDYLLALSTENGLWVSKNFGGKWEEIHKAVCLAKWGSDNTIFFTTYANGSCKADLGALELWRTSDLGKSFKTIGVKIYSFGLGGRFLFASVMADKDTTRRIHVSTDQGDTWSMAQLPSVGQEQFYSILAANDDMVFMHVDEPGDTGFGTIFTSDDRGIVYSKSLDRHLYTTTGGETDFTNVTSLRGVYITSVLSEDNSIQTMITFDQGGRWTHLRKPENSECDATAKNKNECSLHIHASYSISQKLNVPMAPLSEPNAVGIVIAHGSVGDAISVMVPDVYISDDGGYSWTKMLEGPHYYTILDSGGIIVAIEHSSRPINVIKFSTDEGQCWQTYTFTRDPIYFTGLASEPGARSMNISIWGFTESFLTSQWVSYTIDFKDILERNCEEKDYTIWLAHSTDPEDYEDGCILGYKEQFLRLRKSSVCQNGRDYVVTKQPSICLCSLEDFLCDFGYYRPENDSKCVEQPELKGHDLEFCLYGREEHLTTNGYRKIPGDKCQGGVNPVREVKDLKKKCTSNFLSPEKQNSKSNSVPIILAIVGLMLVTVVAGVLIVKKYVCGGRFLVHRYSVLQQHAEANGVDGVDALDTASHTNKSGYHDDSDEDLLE

Assays:
Assay in all cases: log2 fold change, soluble protein after heating vs DMSO (PISA); higher = thermal stabilisation; K562 lysate, 10 uM; active = over 0.2 and 3.5 SD of the protein, either way, in both replicates (recomputed)
ibrutinib = compound: C=CC(=O)N1CCC[C@@H](n2nc(-c3ccc(Oc4ccccc4)cc3)c3c(N)ncnc32)C1 [ibrutinib]
In short: (§1)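 Dounce homogenisation of K562 pellets in PBS pH 7.4 with 1 mM MgCl2 produced a crude extract, used at 1 mg/mL protein. Exposure to 10 μM compound lasted 30 min, and aliquots were then heated for 3 min across 48°C-58°C, pooled and brought to 0.5% NP-40 at 4°C. The supernatant after 21,000xg for 90 min was quantified by TMTpro 16plex LC-MS/MS with channel sums equalised. Duplicate values are given as log-two fold change in thermal stability relative to solvent controls.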

[1] = compound: CC(=O)c1cnc2ccc(-c3cc(Cl)c(O)c(Cl)c3)nc2c1N[C@H]1CC[C@H](CN(C)C)CC1
In short: as §1

ralimetinib = compound: CC(C)(C)Cn1c(N)nc2ccc(-c3[nH]c(C(C)(C)C)nc3-c3ccc(F)cc3)nc21 [ralimetinib]
In short: as §1

[2] = compound: CC(C)(O)CC(=O)NCCn1ccc2ncnc(Nc3ccc(Oc4cccc(C(F)(F)F)c4)c(Cl)c3)c21
In short: as §1

[3] = compound: CC(C)C1=C2N=C(C=C(N2N=C1)NCC3=CC=CC=C3)NCCCCCCN
In short: as §1

[4] = compound: CC1=C(C(CC(=O)N1)C2=CC=C(C=C2)C(F)(F)F)C(=O)NC3=C(C=C4C(=C3)C=NN4)F
In short: as §1

[5] = compound: CC1=C(C2=C(C=C1)C(=O)C3=CC=CC=C3N2CCCN)C
In short: as §1

[6] = compound: CC1=C(C=C(C=C1)NC(=O)C2=CC(=CC=C2)C(C)(C)C#N)NC3=CC4=C(C=C3)N=CN(C4=O)C
In short: as §1

[7] = compound: CC1=C(C=C(C=C1)NC(=O)C2=CC(=CC=C2)N(C)C)NC(=O)C3=CC=C(C=C3)O
In short: as §1

[8] = compound: CC1=CC=C(C=C1)SC2=C3C=C(SC3=CN=C2)C(=O)N
In short: as §1

vemurafenib = compound: CCCS(=O)(=O)Nc1ccc(F)c(C(=O)c2c[nH]c3ncc(-c4ccc(Cl)cc4)cc23)c1F [vemurafenib]
In short: as §1

[9] = compound: CCCS(=O)(=O)Nc1ccc(F)c(C(=O)c2c[nH]c3ncc(Cl)cc23)c1F
In short: as §1

barasertib = compound: CCN(CCCOc1ccc2c(Nc3cc(CC(=O)Nc4cccc(F)c4)[nH]n3)ncnc2c1)CCOP(=O)(O)O [barasertib]
In short: as §1

[10] = compound: CC[C@@H]1C(=O)N(C)c2cnc(Nc3ccc(C(=O)NC4CCN(C)CC4)cc3OC)nc2N1C1CCCC1
In short: as §1

volasertib = compound: CC[C@@H]1C(=O)N(C)c2cnc(Nc3ccc(C(=O)N[C@H]4CC[C@H](N5CCN(CC6CC6)CC5)CC4)cc3OC)nc2N1C(C)C [volasertib]
In short: as §1

[11] = compound: CCn1c(C(=O)N(C2CC2)C2CC2)cc2c3c(ncn3C)c(Nc3cc(C)n(C)n3)nc21
In short: as §1

[12] = compound: CCn1cc(-c2ccnc3[nH]c(-c4cccc(CN(C)C)c4)cc23)c(-c2ccc(NC(=O)N(C)C)cc2)n1
In short: as §1

[13] = compound: CN1CCC(CNc2ccc3ncc(-c4cccc(OC(F)(F)F)c4)n3n2)CC1
In short: as §1

saracatinib = compound: CN1CCN(CCOc2cc(OC3CCOCC3)c3c(Nc4c(Cl)ccc5c4OCO5)ncnc3c2)CC1 [saracatinib]
In short: as §1

sotrastaurin = compound: CN1CCN(c2nc(C3=C(c4c[nH]c5ccccc45)C(=O)NC3=O)c3ccccc3n2)CC1 [sotrastaurin]
In short: as §1

Measured: log2 fold change

SNAP91 (UniProt O60641)
inactive: ibrutinib -0.098 | [1] 0.04 | ralimetinib -0.014 | [2] -0.053 | [3] -0.02 | [4] -0.009 | [5] -0.069 | [6] 0.023 | [7] -0.015 | [8] -0.023 | vemurafenib -0.143 | [9] -0.039 | barasertib -0.032 | [10] -0.001 | volasertib -0.062 | [11] 0.056 | [12] -0.078 | [13] -0.014 | saracatinib 0 | sotrastaurin -0.027

SMG9 (UniProt Q9H0W8)
inactive: ibrutinib 0.026 | [1] -0.028 | ralimetinib 0.008 | [2] 0.018 | [3] -0.046 | [4] 0.03 | [5] -0.052 | [6] 0.005 | [7] 0.008 | [8] 0.043 | vemurafenib -0.001 | [9] 0.014 | barasertib 0.056 | [10] 0.073 | volasertib -0.079 | [11] -0.018 | [12] -0.081 | [13] 0.093 | saracatinib 0.011 | sotrastaurin 0.046

SMN1 (UniProt Q16637)
inactive: ibrutinib -0.085 | [1] -0.028 | ralimetinib 0.01 | [2] -0.01 | [3] 0.002 | [4] 0.001 | [5] -0.018 | [6] 0.018 | [7] 0.137 | [8] -0.045 | vemurafenib 0.031 | [9] 0.075 | barasertib -0.056 | [10] -0.026 | volasertib 0 | [11] -0.037 | [12] -0.073 | [13] -0.031 | saracatinib 0.053 | sotrastaurin -0.039

SP1 (UniProt P08047)
inactive: ibrutinib 0.04 | [1] 0.017 | ralimetinib -0.018 | [2] -0.049 | [3] -0.103 | [4] -0.013 | [5] 0.061 | [6] 0.22 | [7] 0.017 | [8] -0.027 | vemurafenib -0.115 | [9] 0.056 | barasertib 0.045 | [10] 0.015 | volasertib 0.043 | [11] -0.008 | [12] -0.061 | [13] 0.019 | saracatinib 0.037 | sotrastaurin -0.154

SNX11 (UniProt Q9Y5W9)
inactive: ibrutinib -0.028 | [1] 0.009 | ralimetinib 0.022 | [2] -0.008 | [3] -0.013 | [4] 0.021 | [5] -0.101 | [6] -0.001 | [7] -0.004 | [8] -0.034 | vemurafenib -0.02 | [9] -0.004 | barasertib -0.036 | [10] 0.042 | volasertib 0.056 | [11] -0.055 | [12] -0.081 | [13] 0.074 | saracatinib -0.023 | sotrastaurin -0.003

Looked up one by one from the list above (2):
SNX11 (UniProt Q9Y5W9)
inactive: ibrutinib -0.028 | [1] 0.009 | ralimetinib 0.022 | [2] -0.008 | [3] -0.013 | [4] 0.021 | [5] -0.101 | [6] -0.001 | [7] -0.004 | [8] -0.034 | vemurafenib -0.02 | [9] -0.004 | barasertib -0.036 | [10] 0.042 | volasertib 0.056 | [11] -0.055 | [12] -0.081 | [13] 0.074 | saracatinib -0.023 | sotrastaurin -0.003

SMG9 (UniProt Q9H0W8)
inactive: ibrutinib 0.026 | [1] -0.028 | ralimetinib 0.008 | [2] 0.018 | [3] -0.046 | [4] 0.03 | [5] -0.052 | [6] 0.005 | [7] 0.008 | [8] 0.043 | vemurafenib -0.001 | [9] 0.014 | barasertib 0.056 | [10] 0.073 | volasertib -0.079 | [11] -0.018 | [12] -0.081 | [13] 0.093 | saracatinib 0.011 | sotrastaurin 0.046

The list continues.

SNX1 (UniProt Q13596)
inactive: ibrutinib 0.001 | [1] -0.009 | ralimetinib -0.018 | [2] 0.005 | [3] -0.006 | [4] -0.003 | [5] 0.001 | [6] -0.035 | [7] 0.007 | [8] -0.001 | vemurafenib 0.01 | [9] 0.018 | barasertib 0.013 | [10] -0.009 | volasertib -0.013 | [11] -0.002 | [12] -0.022 | [13] -0.018 | saracatinib 0.007 | sotrastaurin -0.009

SNX15 (UniProt Q9NRS6)
inactive: ibrutinib -0.006 | [1] -0.014 | ralimetinib 0.012 | [2] -0.002 | [3] -0.058 | [4] 0.009 | [5] 0.037 | [6] -0.046 | [7] 0.066 | [8] 0.019 | vemurafenib -0.013 | [9] 0.036 | barasertib 0.012 | [10] 0.007 | volasertib -0.003 | [11] -0.02 | [12] -0.051 | [13] -0.03 | saracatinib 0.009 | sotrastaurin 0.026

SORT1 (UniProt Q99523)
inactive: ibrutinib -0.008 | [1] -0.001 | ralimetinib -0.013 | [2] -0.014 | [3] -0.007 | [4] 0.006 | [5] -0.011 | [6] -0.001 | [7] 0.017 | [8] 0.006 | vemurafenib 0.002 | [9] -0.001 | barasertib 0.024 | [10] -0.018 | volasertib 0.026 | [11] -0.025 | [12] -0.014 | [13] 0.025 | saracatinib 0.014 | sotrastaurin 0.028
